Measurements reported in PubChem BioAssay AID1224826 (NIAID, 2016)

Test: 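Regulators of Tlr4 signalling leading to Tnf-alpha expression in macrophages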 (primary screen)
Cell system: RAW264.7 G9 macrophages from mouse bearing reporters for p65 (GFP) and the Tnf promoter (mCherry)
Reagent: siRNA pool against mouse genes, 100 nM
Timing: 16 h of LPS stimulation, after 2 days of siRNA transfection
Conditions: bacterial lipopolysaccharide (Salmonella minnesota R595), 10 ng/ml
Detection: 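Nuclear mCherry signal of the Tnf promoter reporter measured by imaging after background removal, scaled to each plate median and turned into robust z-scores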
Scale: Tnf reporter robust z-score: higher = stronger Tnf promoter reporter signal after LPS
Call rule: 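Called active when robust z-score is at most -1.3, matching the median of the Tlr4 knock-down control, or over 3; control wells and wells with under 50 cells never active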
Meaning of the calls: active = Tnf reporter clearly lowered or raised; inactive = no clear change in Tnf reporter
Shown is a random part of about 17,000 reagents tested. Over the whole deposit, about 1,110 (6.6%) are marked active. 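Active means lowered or raised reporter signal; replicate intensities are raw and not normalised per plate.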 Further read-outs or replicates are left out here.

The opening 6 records as a preview:
| Target gene | Tnf reporter robust z-score | fewer than 50 cells in well | call |
| --- | --- | --- | --- |
| Tm9sf3 | – | fewer than 50 cells per well; well left out of calls | inactive |
| Tmem150b | 1.16 | enough cells in well | inactive |
| Atp12a | -0.44 | enough cells in well | inactive |
| Mapk8ip1 | 0.26 | enough cells in well | inactive |
| Togaram2 | -0.17 | enough cells in well | inactive |
| Smcp | -0.93 | enough cells in well | inactive |

Results, from the first entry:
| Target gene | Tnf reporter robust z-score | fewer than 50 cells in well | call |
| --- | --- | --- | --- |
| Tm9sf3 | – | fewer than 50 cells per well; well left out of calls | inactive |
| Tmem150b | 1.16 | enough cells in well | inactive |
| Atp12a | -0.44 | enough cells in well | inactive |
| Mapk8ip1 | 0.26 | enough cells in well | inactive |
| Togaram2 | -0.17 | enough cells in well | inactive |
| Smcp | -0.93 | enough cells in well | inactive |
| Depdc1a | 0.3 | enough cells in well | inactive |
| Riox2 | 1.27 | enough cells in well | inactive |
| Slco2a1 | -0.42 | enough cells in well | inactive |
| Cnot7 | -0.39 | enough cells in well | inactive |
| Cldn15 | -0.1 | enough cells in well | inactive |
| Enpp2 | 0.17 | enough cells in well | inactive |
| 4930550C14Rik | – | fewer than 50 cells per well; well left out of calls | inactive |
| Evi2a | -0.39 | enough cells in well | inactive |
| Gsr | 0.45 | enough cells in well | inactive |
| Elavl2 | 0.81 | enough cells in well | inactive |
| Ccnt2 | 0.17 | enough cells in well | inactive |
| Akap8l | 0.68 | enough cells in well | inactive |
| Cdk7 | -0.31 | enough cells in well | inactive |
| Nol11 | 1.63 | enough cells in well | inactive |
| Pip5k1a | – | fewer than 50 cells per well; well left out of calls | inactive |
| Clec9a | -0.97 | enough cells in well | inactive |
| Sec11a | 0.35 | enough cells in well | inactive |
| Ceacam12 | 0.45 | enough cells in well | inactive |
| Npc1l1 | -0.11 | enough cells in well | inactive |
| Vxn | 2.59 | enough cells in well | inactive |
| Neu3 | 0.48 | enough cells in well | inactive |
| Rplp2 | -1.07 | enough cells in well | inactive |
| Bcl6b | -0.54 | enough cells in well | inactive |
| Or52e2 | – | fewer than 50 cells per well; well left out of calls | inactive |
| 9030203C11Rik | -1.06 | enough cells in well | inactive |
| Or2g7 | -0.42 | enough cells in well | inactive |
| C4a | 1.8 | enough cells in well | inactive |
| Kat5 | 0.39 | enough cells in well | inactive |
| B3gnt8 | 1.52 | enough cells in well | inactive |
| Mup5 | 0.5 | enough cells in well | inactive |
| Cd99 | – | fewer than 50 cells per well; well left out of calls | inactive |
| Zfp78 | – | fewer than 50 cells per well; well left out of calls | inactive |
| Haus4 | -0.81 | enough cells in well | inactive |
| Cfap65 | 0.63 | enough cells in well | inactive |
| Smc1a | – | fewer than 50 cells per well; well left out of calls | inactive |
| Gps1 | -0.08 | enough cells in well | inactive |
| Wnt3a | -0.68 | enough cells in well | inactive |
| Plxna3 | -0.09 | enough cells in well | inactive |
| Myoz2 | -0.84 | enough cells in well | inactive |
| Barx2 | -0.72 | enough cells in well | inactive |
| Glra4 | 0.87 | enough cells in well | inactive |
| Park7 | -0.42 | enough cells in well | inactive |
| Map7d1 | -0.79 | enough cells in well | inactive |
| Dsg3 | -0.81 | enough cells in well | inactive |
| Erp27 | – | fewer than 50 cells per well; well left out of calls | inactive |
| Fcer1g | -0.46 | enough cells in well | inactive |
| 4930566N20Rik | – | fewer than 50 cells per well; well left out of calls | inactive |
| Nxpe4 | 2.97 | enough cells in well | inactive |
| Zfr | – | fewer than 50 cells per well; well left out of calls | inactive |
| Dnajc9 | 0.68 | enough cells in well | inactive |
| H2bc3 | -1.8 | enough cells in well | active |
| Mbip | -0.86 | enough cells in well | inactive |
